Source: article PMC4214723
Results are given in words; binding and its absence hold for the method and conditions named. Binding seen in cells or lysates may run through a third protein. Some entries that bind do so weakly or less than the wild type. Sequences can lack the tags named with a protein.

Amino acid sequences for entries named in this document (tags omitted). Residues count along the entry.
UniProt C0LGT6, residues 25-1031: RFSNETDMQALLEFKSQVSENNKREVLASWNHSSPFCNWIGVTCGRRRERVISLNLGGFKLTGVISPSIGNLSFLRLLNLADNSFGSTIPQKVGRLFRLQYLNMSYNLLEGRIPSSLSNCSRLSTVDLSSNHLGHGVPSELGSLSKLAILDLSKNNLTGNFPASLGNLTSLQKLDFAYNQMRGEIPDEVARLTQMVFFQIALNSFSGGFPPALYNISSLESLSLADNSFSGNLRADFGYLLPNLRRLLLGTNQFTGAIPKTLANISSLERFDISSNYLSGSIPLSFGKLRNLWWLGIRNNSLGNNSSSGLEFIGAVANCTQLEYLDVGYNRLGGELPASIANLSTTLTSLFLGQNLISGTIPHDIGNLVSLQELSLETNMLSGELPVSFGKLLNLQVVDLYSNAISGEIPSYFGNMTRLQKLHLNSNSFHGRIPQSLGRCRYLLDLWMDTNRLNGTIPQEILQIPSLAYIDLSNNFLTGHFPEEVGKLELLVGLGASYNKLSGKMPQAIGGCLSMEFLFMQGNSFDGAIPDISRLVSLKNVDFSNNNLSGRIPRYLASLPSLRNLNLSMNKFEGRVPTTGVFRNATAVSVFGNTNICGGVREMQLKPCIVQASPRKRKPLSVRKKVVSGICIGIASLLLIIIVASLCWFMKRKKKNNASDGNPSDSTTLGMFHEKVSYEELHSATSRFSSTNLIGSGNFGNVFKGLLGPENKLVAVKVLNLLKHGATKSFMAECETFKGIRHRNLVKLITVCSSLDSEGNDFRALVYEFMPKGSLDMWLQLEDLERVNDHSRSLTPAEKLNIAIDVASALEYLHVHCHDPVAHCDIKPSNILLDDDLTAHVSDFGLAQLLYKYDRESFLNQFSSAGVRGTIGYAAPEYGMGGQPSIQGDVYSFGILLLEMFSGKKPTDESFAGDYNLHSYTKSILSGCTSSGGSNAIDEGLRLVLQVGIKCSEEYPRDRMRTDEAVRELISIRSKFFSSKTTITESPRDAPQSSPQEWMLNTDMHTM

Molecular target: T1, BAK1-Myc (Arabidopsis) (UniProt Q94F62)
T1 sequence: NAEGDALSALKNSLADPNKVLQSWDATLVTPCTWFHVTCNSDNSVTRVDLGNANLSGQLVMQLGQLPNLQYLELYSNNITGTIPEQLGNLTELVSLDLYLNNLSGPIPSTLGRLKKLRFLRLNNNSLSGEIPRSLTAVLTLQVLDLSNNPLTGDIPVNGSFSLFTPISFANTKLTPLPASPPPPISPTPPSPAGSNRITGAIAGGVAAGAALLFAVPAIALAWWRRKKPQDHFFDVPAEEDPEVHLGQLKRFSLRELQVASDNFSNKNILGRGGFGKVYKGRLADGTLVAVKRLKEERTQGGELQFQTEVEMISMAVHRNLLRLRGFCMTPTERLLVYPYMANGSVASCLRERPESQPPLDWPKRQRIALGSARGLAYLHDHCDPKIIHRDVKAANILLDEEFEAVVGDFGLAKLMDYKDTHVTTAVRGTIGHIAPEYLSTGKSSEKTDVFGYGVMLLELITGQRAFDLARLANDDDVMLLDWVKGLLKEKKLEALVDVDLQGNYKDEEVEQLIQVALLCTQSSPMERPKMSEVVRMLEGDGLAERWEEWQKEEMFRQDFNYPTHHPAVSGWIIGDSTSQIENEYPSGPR
Assay: co-IP

binding: binds
Substance: EFR-HA (full-length, wild type) (from UniProt C0LGT6 25-1031) (receptor)
